Hit rate of the full screen: of about 400,000 compounds, about 5,500 (1.4%) were called active. Inconclusive results, whose numbers are uncertain, are shown with a selection of clear calls. Calls follow the shape of the dose curve; as a rule, active = well fitted cell-killing curve with a large enough effect; inconclusive = small, poorly fitted or top-dose-only effect, or effect the other way; inactive = flat fitted curve, though single readings scatter. Potencies beside an inconclusive call are fits to weak or partial responses and may not hold up.
assay: qHTS assay for MDR1-selective chemotherapeutics: Primary screen using the parental adenocarcinoma cell KB-3-1; conditions: KB-3-1 viability, CellTiter-Glo ATP luminescence, 72 h; activity change, negative = cytotoxic: at 46.1 µM (top of the series); also: nearly all actives have a fitted effect of over 60% in size
Procedure, shortened: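 Using CellTiter-Glo luminescence, growth of non-resistant KB-3-1 adenocarcinoma cells is assessed 72 h after pin-tool compound addition at 37 °C. Normalized responses across the concentration series yield fitted curves.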
% is scaled to controls: 0 for no effect and ±100 for the full control effect; potency is read from the fitted curve at half-maximal effect.

| Structure (SMILES) | Potency | activity change, negative = cytotoxic |
| --- | --- | --- |
| Cc1cc(Br)ccc1NC(=O)CNC(=O)Cn1ncc(Cl)c(Cl)c1=O | active: 5.17 µM | – |
| COc1ccc2c(-c3ccccc3)cc(SCC(N)=O)nc2c1 | – | inactive: -13.6% |
| COC(=O)c1cccc(NS(=O)(=O)c2ccc(OC)cc2)c1C | active: 8.2 µM | – |
| Cc1cc(C)n(CC(=O)N/N=C/c2cc([N+](=O)[O-])ccc2O)n1 | inconclusive: 18.4 µM [cytotoxic, single point] | – |
| C[C@H](NC(=O)c1nc[nH]c1C(=O)N[C@@H](Cc1ccccc1)C(=O)OC(C)(C)C)C(=O)OC(C)(C)C | inconclusive: 29.1 µM [cytotoxic, single point] | – |
| CC(C)C(=O)Nc1cccc(COc2ccc(CN(Cc3ccccc3)C(=O)OC(C)(C)C)cc2)c1 | inconclusive: 16.4 µM [cytotoxic, single point] | – |
| COc1cc(OC)cc(OC(=O)C2CCN(C(=O)c3ccc(Cl)cc3)CC2)c1 | – | inactive: -5.36% |
| Cn1c(=O)n(C)c2cc([N+](=O)[O-])c(N3CCN(C(=O)c4ccc(Cl)cc4)CC3)cc21 | inconclusive: 0.731 µM [cytotoxic, full curve, poor fit] | – |
| Cc1ccccc1Oc1cc(-n2ncc(Cl)c(Cl)c2=O)ncn1 | active: 14.6 µM | – |
| Cc1ccc(OCC(=O)O/N=C(\N)Cc2ccc(Cl)cc2)cc1 | inconclusive: 29.1 µM [cytotoxic, single point] | – |
| Cc1ccc(S(=O)(=O)/N=C(\N)Nc2nc(C)c3cc(C)c(C)cc3n2)cc1 | – | inactive: -4.64% |
| CCOc1ccc(NC2=C(OC)C(=O)c3ccccc3C2=O)cc1 | – | inactive: -2.77% |
| COc1ccc(-c2noc(CCC(=O)NCc3cccnc3)n2)cc1OC | inconclusive: 14.6 µM [rising, partial curve, poor fit] | – |
| COc1ccc(-c2cc(C(F)(F)F)nc(SCC(=O)N(C)Cc3cnn(C)c3C)n2)cc1OC | inconclusive: 29.1 µM [rising, single point] | – |
| O=[N+]([O-])c1ccc(N2CCN(CC(O)COc3ccccc3)CC2)cc1 (stereo unspecified) | inconclusive: 25.9 µM [cytotoxic, single point] | – |
| CCOCc1c(C(=O)Nc2ccc3nc(N4CCOCC4)sc3c2)oc2ccccc12 | inconclusive: 20.6 µM [cytotoxic, partial curve, poor fit] | – |
| CC(=O)Nc1cccc(Nc2nc(-c3ccccc3)nc3ccccc23)c1 | inconclusive: 29.1 µM [cytotoxic, single point] | – |
| CCN(CC)C(=O)Cn1c(=O)n(Cc2ccc(F)cc2)c(=O)c2sccc21 | – | inactive: 4.93% |
| CC(C)NC(=O)C1(C)CCN1C(=O)Cc1ccc(-c2ccccc2)cc1 (stereo unspecified) | – | inactive: -0.568% |
| CC(C)(C)C(=O)NC1CCN(CC(=O)Nc2ccc3c(c2)OCO3)CC1 | inconclusive: 2.91 µM [rising, full curve, poor fit] | – |
| CC(=O)c1cc(-c2ccccc2)n(CC(=O)NCCc2ccc(C)cc2)c1C | – | inactive: -4.79% |
| CCc1nc2ccc(C(=O)N3CCN(c4cccc(C(F)(F)F)c4)CC3)cc2nc1CC | inconclusive: 20.6 µM [rising, partial curve, poor fit] | – |
| Cc1c(C(=O)OCC[N+]2(C)CCCCC2)oc2ccccc12 | inconclusive: 29.1 µM [cytotoxic, single point] | – |
| CCN1CCN(c2cc(C)c3cc(NC(=O)c4cnccn4)ccc3n2)CC1 | inconclusive: 0.0206 µM [rising, full curve] | – |

| Structure (SMILES) | Potency | activity change, negative = cytotoxic |
| --- | --- | --- |
| O=C(Nc1ccc2c(c1)OCO2)c1ccc(NC2CC2)c([N+](=O)[O-])c1 | inconclusive: 29.1 µM [cytotoxic, single point] | – |
| O=C(CCl)Nc1c2c(nn1-c1ccccc1)CSC2 | inconclusive: 20.6 µM [cytotoxic, single point] | – |
| S=C1NNC2(NN1)C1CC3CC(C1)CC2C3 | inconclusive: 20.6 µM [rising, single point] | – |
| CN(C(=O)CSc1nc2ccccc2n1CC(=O)N(C)C1CCCCC1)c1ccccc1 | – | inactive: -7.33% |
| CCCCOc1ccccc1C1CC(=O)NC2=C1C(=O)CCC2 (stereo unspecified) | inconclusive: 1.46 µM [cytotoxic, full curve, poor fit] | – |
| Cc1cccc(NC(=O)CSc2nc3ccccc3nc2N2CCCCC2)c1 | inconclusive: 29.1 µM [cytotoxic, single point] | – |
| Cc1cccc(NC(=O)CN2C(=O)CCn3nc(-c4cccn4C)cc32)c1C | – | inactive: -3.13% |
| COc1ccccc1C(c1nnnn1C(C)(C)C)N1CCCc2ccccc21 (stereo unspecified) | inconclusive: 32.6 µM [cytotoxic, single point] | – |
| O=C(Oc1c(CN2CCOCC2)cc(Cl)c2cccnc12)c1ccc(F)cc1 | active: 5.8 µM | – |
| CCC(C)NCCOCCOc1cc(C)c(Cl)c(C)c1 (stereo unspecified) | inconclusive: 18.4 µM [cytotoxic, single point] | – |
| CCOc1ccc(Nc2nc(N)nc(CSC(=S)N3CCN(c4ccccc4)CC3)n2)cc1 | inconclusive: 32.6 µM [cytotoxic, partial curve, poor fit] | – |
| O=C(NC(=S)Nc1ccc(NC(=O)c2cccs2)cc1)c1ccc([N+](=O)[O-])cc1 | inconclusive: 20.6 µM [rising, single point] | – |
| Cc1cc(C)c2oc(=O)cc(CN3CCC(C)CC3)c2c1 | – | inactive: 7.59% |
| C=CCC[C@H](Cc1ccc(F)cc1)C(=O)OC[C@@H](NC(=O)[C@@H](CC=C)CC(=O)N(CCO)Cc1ccccc1)C(C)(C)C | inconclusive: 32.6 µM [cytotoxic, single point] | – |
| COc1cccc(NC(=O)Nc2ccccc2SC)c1 | – | inactive: -2.18% |
| CC(=NC1CC1)c1c(-c2ccccc2)[nH]n(-c2nc3ccccc3s2)c1=O | inconclusive: 35.5 µM [cytotoxic, single point] | – |
| COc1cc(C(C(=O)NC2CCCCC2)N(C(=O)Cc2c[nH]c3ccccc23)c2ccc(C)cc2)cc(OC)c1OC (stereo unspecified) | inconclusive: 29.1 µM [cytotoxic, single point] | – |
| CCCCN(CC)C(=O)C1CCCN(c2ncnc3c2nc2n3CCCCC2)C1 (stereo unspecified) | – | inactive: 1.64% |
| Cc1ccccc1NC(=O)CSc1ccsc1[N+](=O)[O-] | inconclusive: 29.1 µM [cytotoxic, single point] | – |
| CCOC(=O)c1ccc(NC(=O)c2ccc(CN3C(=O)CCn4nc(C)cc43)cc2)cc1 | – | inactive: 5.37% |
| COc1ccc(-c2cc3ccc(O)cc3oc2=O)cc1OC | – | inactive: -8.54% |
| Cc1ccc(O)c(C(=O)c2cnc3c(c2)CN(C)C(=O)N3)c1 | inconclusive: 35.5 µM [cytotoxic, single point] | – |
| O=C(CCc1ccccc1)NNC(=O)c1cc(Cl)ccc1O | inconclusive: 29.1 µM [cytotoxic, single point] | – |
| C/C(=N\Nc1nc(Cl)c(Cl)cc1Cl)c1ccc(S(=O)(=O)NCc2ccco2)cc1 | inconclusive: 18.4 µM [cytotoxic, single point] | – |

Complete entries from above:
CCOC(=O)c1ccc(NC(=O)c2ccc(CN3C(=O)CCn4nc(C)cc43)cc2)cc1 as listed: activity change, negative = cytotoxic: inactive: 5.37%
COC(=O)c1cccc(NS(=O)(=O)c2ccc(OC)cc2)c1C as listed: Potency: active: 8.2 µM
CC(C)(C)C(=O)NC1CCN(CC(=O)Nc2ccc3c(c2)OCO3)CC1 as listed: Potency: inconclusive: 2.91 µM [rising, full curve, poor fit]
CCN1CCN(c2cc(C)c3cc(NC(=O)c4cnccn4)ccc3n2)CC1 as listed: Potency: inconclusive: 0.0206 µM [rising, full curve]

Following part:

| Structure (SMILES) | Potency | activity change, negative = cytotoxic |
| --- | --- | --- |
| CC(=O)c1ccc(S(=O)(=O)NCCC(=O)NC2CCN(Cc3ccccc3)CC2)cc1 | – | inactive: -1.63% |
| CCc1cc(C(=O)c2ccc(C)cc2)c(NC(=O)CCl)s1 | active: 23.1 µM | – |
| CC(=NCc1cccc(Cl)c1)c1nc(-c2ccco2)oc1O | active: 5.8 µM | – |
| CCn1nc(C)c(CNC(=O)c2cc(COc3ccc(C)nc3)on2)c1C | inconclusive: 20.6 µM [cytotoxic, single point] | – |
| Cc1nn(-c2nc3ccccc3[nH]2)c(N)c1-c1ccc(Cl)cc1 | inconclusive: 29.1 µM [cytotoxic, single point] | – |
| COCCn1c(=NC(=O)CSCC(=O)NC2CCCCC2)sc2cc(OC)ccc21 | inconclusive: 16.4 µM [cytotoxic, partial curve, poor fit] | – |
| COc1cc(CN2CCC(C(=O)NC(c3ccc(-c4ccccc4)cc3)c3cnccn3)CC2)cc(OC)c1 (stereo unspecified) | inconclusive: 29.1 µM [cytotoxic, single point] | – |
| COC(=O)N1C(=O)[C@](c2ccc(Cl)cc2)(C(C)C)N1C(=O)OC | – | inactive: -20% |
| Cn1c(=O)c2c([nH]c(=S)n2Cc2ccc(Cl)cc2)n(C)c1=O | – | inactive: -4.86% |
| CCOc1ccccc1N1CCN(C(=O)c2ccc(S(=O)(=O)Nc3ccccc3)cc2)CC1 | inconclusive: 16.4 µM [cytotoxic, single point] | – |
| CCCc1c(-c2cccc(Cl)c2)ncn1Cc1ccccc1OC | inconclusive: 29.1 µM [cytotoxic, single point] | – |
| COc1ccc(Nc2c3c(nc4ccccc24)CCCC3)cc1OC | inconclusive: 25.9 µM [cytotoxic, single point] | – |
| CCSc1nsc(NC(=O)Nc2cccc(C(C)=O)c2)n1 | inconclusive: 18.4 µM [cytotoxic, single point] | – |
| Cc1ccc(C(=O)c2cc([N+](=O)[O-])ccc2N2CCCCC2)cc1C | active: 2.91 µM | – |
| COc1ccc(C(=O)NC(=S)N2CCCCC2)cc1 | – | inactive: -0.442% |
| Cc1ccc(NC(=O)CN(C)S(=O)(=O)c2ccc3c(c2)n(C)c(=O)c(=O)n3C)c(C)c1 | inactive | – |
| COc1ccc(C(=O)NCC(c2cccs2)N2CCOCC2)cc1OC (stereo unspecified) | – | inactive: 8.54% |
| CCOC(=O)c1c(NC(=O)C2C3CCC(O3)C2C(=O)O)sc(C)c1-c1ccc(F)cc1 (stereo unspecified) | – | inactive: 25.6% |
| O=C1C(NS(=O)(=O)c2cccs2)=C(N2CCN(Cc3ccccc3)CC2)C(=O)c2ccccc21 | – | inactive: -16.5% |
| COc1ccc(NC(=O)CC(C)NCCCN2CCCC2=O)cc1 (stereo unspecified) | – | inconclusive: 0.243% |
| CNc1cncc(-c2ccc(NS(C)(=O)=O)cc2)n1 | active: 2.91 µM | – |
| Cc1ccc(Cl)cc1-c1cc(C(=O)NCc2cc(C(F)(F)F)cc(C(F)(F)F)c2)[nH]n1 | inconclusive: 29.1 µM [cytotoxic, single point] | – |
| COc1ccc(C(=O)/C(C#N)=N/Nc2ccc([N+](=O)[O-])cc2)cc1 | active: 2.31 µM | – |
